Literature values as cited in patent publication US20040138247A1 (priority 1999, published 2004).
Counter-ions that a name gives are not always drawn.

Conditions: PDR 54th Edition; cited from earlier work

## O=C(O)COCCN1CCN(C(c2ccccc2)c2ccc(Cl)cc2)CC1 (centres unmarked) [cetirizine hydrochloride]
  Decrease of Cmax in the presence of food: 23%
  Delay of Tmax in the presence of food: 1.7 h
